In patent US20190025321A1:

Molecular target: FLAG-metap2
Experiment: co-immunoprecipitation, anti-FLAG IP from co-transfected HEK-293T cells, immunoblot for HA-tagged CASTOR1

B1: recombinant CASTOR1 (Cellular Arginine Sensor for mTORC1; protein encoded by the GATS protein-like 3 gene) (protein, human, UniProt Q8WTX7 1-329, looked up, not shown: small tags and cut ends)
chain: MELHILEHRVRVLSVARPGLWLYTHPLIKLLFLPRRSRCKFFSLTETPEDYTLMVDEEGFKELPPSEFLQVAEATWLVLNVSSHSGAAVQAAGVTKIARSVIAPLAEHHVSVLMLSTYQTDFILVREQDLSVVIHTLAQEFDIYREVGGEPVPVTRDDSSNGFPRTQHGPSPTVHPIQSPQNRFCVLTLDPETLPAIATTLIDVLFYSHSTPKEAASSSPEPSSITFFAFSLIEGYISIVMDAETQKKFPSDLLLTSSSGELWRMVRIGGQPLGFDECGIVAQIAGPLAAADISAYYISTFNFDHALVPEDGIGSVIEVLQRRQEGLAS
B1 was tested. Which binding did it give?
Its binding is “no binding”.

Results are given in words; binding and its absence hold for the method and conditions named. In cells and extracts the contact can be indirect.
